The list shows only some results of the screen, not a fair sample: it gathers tests that were run many times, whatever their T/C, doses with no T/C, and many T/C values between a quarter and a half above the control. Other doses and runs of a compound stand elsewhere. T/C is the treated group as % of the vehicle group. Some doses have a count of surviving animals in place of a T/C: the source files T/C as zero there, which appears to mark a toxic dose or a test without result, not a measured value. Some survivor counts are full or nearly so, which does not show that the dose was tolerated: the source hardly ever lists a survival T/C far under the control, and the zero likely stands for such cases as well. Survivors were counted at the toxicity check, usually on the fifth day, unless a day is given; later deaths do not show. Schedules are NCI's codes, read here as Q, the interval in days (D) or hours (H), X, the number of doses. For survival time, this PubChem deposit counts one and a half times the control or more as active, and values a quarter to a half above the control carry no call in these data; other NCI protocols may use other cut-offs. Some T/C values are followed by the survivors on the day toxicity was checked, most often the fifth; where none is given, no animal had died by that day.

The assay relates to P388 leukemia ip, CD2F1 mice, survival T/C. The assay can be described thus: NCI In Vivo Anticancer Drug Screen. Data for tumor model P388 Leukemia (intraperitoneal) in CD2F1 (CDF1) mice. To be noted: T/C endpoint: median survival time, higher T/C = longer survival.
[1] abbreviates: dose: 200.0 mg/kg/injection, schedule: Q04DX003 (ip), vehicle: saline with Tween-80.
The mark [2] stands for this setting: dose: 400.0 mg/kg/injection, schedule: Q04DX003 (ip), vehicle: saline with Tween-80.
[3] abbreviates: dose: 200.0 mg/kg/injection, schedule: Q01DX005 (ip), vehicle: Klucel (hydroxypropylcellulose) (HPC).

For the molecule `C/C(=N/NC(=S)NCc1ccccc1)c1ncccn1`, the survivor count is on record as 3 of 6 (dose: 100.0 mg/kg/injection, schedule: Q01DX005 (ip), vehicle: saline with Tween-80) and 0 of 6 (dose: 200.0 mg/kg/injection, schedule: Q01DX005 (ip), vehicle: saline with Tween-80).
`CC1OC(O[C@H]2C[C@](O)(C(C)O)Cc3c(O)c4c(c(O)c32)C(=O)c2c(O)cccc2C4=O)CC(NC=O)C1O` (some centres not stated): the T/C reads like this: (dose: 0.65 mg/kg/injection, schedule: Q04DX003 (ip), vehicle: water) 132 % of control; (dose: 1.29 mg/kg/injection, schedule: Q04DX003 (ip), vehicle: water) 138 % of control; (dose: 2.58 mg/kg/injection, schedule: Q04DX003 (ip), vehicle: water) 136 % of control; (dose: 5.16 mg/kg/injection, schedule: Q04DX003 (ip), vehicle: water, evaluated on day 45) 136 % of control [4 of 6 alive on day 9]; (dose: 5.16 mg/kg/injection, schedule: Q04DX003 (ip), vehicle: water, evaluated on day 60) 129 % of control; (dose: 10.32 mg/kg/injection, schedule: Q04DX003 (ip), vehicle: water) 127 % of control.
For the molecule `CC1OC(OC2C(OC3C(OC4CCC5(C)C(CCC6(C)C5CC=C5C7CC(C)(C)CCC7(C(=O)O)CCC56C)C4(C)C)OCC(O)C3O)OC(CO)C(O)C2O)C(O)C(O)C1O` (configuration not stated), the survivor count is listed as 0 of 6 (dose: 15.0 mg/kg/injection, schedule: Q01DX005 (ip), vehicle: distilled water + Tween-80); 0 of 6 (dose: 30.0 mg/kg/injection, schedule: Q01DX005 (ip), vehicle: distilled water + Tween-80); 0 of 6 (dose: 60.0 mg/kg/injection, schedule: Q01DX005 (ip), vehicle: distilled water + Tween-80); 0 of 6 (dose: 120.0 mg/kg/injection, schedule: Q01DX005 (ip), vehicle: distilled water + Tween-80); 0 of 6 (dose: 240.0 mg/kg/injection, schedule: Q01DX005 (ip), vehicle: distilled water + Tween-80).
`c1ccc(CCNCCN2CCNCC2)cc1`: for the setting “dose: 240.0 mg/kg/injection, schedule: Q01DX005 (ip), vehicle: saline”, the survivor count is 0 of 6.
Consider `O=C1C=Cc2ccc(O)cc2C1=O`, for which the survivor count was 3 of 6 (dose: 5.0 mg/kg/injection, schedule: Q01DX009 (ip), vehicle: saline); 2 of 6 (dose: 10.0 mg/kg/injection, schedule: Q04DX003 (ip), vehicle: saline with Tween-80); 0 of 6 (dose: 20.0 mg/kg/injection, schedule: Q04DX003 (ip), vehicle: saline with Tween-80); 0 of 6 (dose: 100.0 mg/kg/injection, schedule: Q04DX003 (ip), vehicle: saline with Tween-80); 0 of 6 under setting [1]; 0 of 6 under setting [2].
Consider `CCN(CC)c1ccc([P+](=O)O)cc1`, for which, where the note is “dose: 200.0 mg/kg/injection, schedule: Q01DX009 (ip), vehicle: saline”, the survivor count is on record as 6 of 6.
Consider `O=Cc1ncccc1[N+](=O)[O-]`, for which the survivor count (dose: 200.0 mg/kg/injection, schedule: Q01DX009 (ip), vehicle: saline + Tween-80 + alcohol) is given as 0 of 6.
In the case of `COc1cccc2c1C(=O)c1c(O)c3c(c(O)c1C2=O)C[C@@](O)(C(C)O)C[C@@H]3OC1CC(N2CCOCC2C#N)C(O)C(C)O1` (some centres not stated), the T/C (dose: 0.05 mg/kg/injection, schedule: Q04DX003 (ip), vehicle: water) is 134 % of control. The survivor count (dose: 0.2 mg/kg/injection, schedule: Q04DX003 (ip), vehicle: water) is reported as 6 of 6 on day 9; the survivor count (dose: 0.39 mg/kg/injection, schedule: Q04DX003 (ip), vehicle: distilled water + Tween-80) is 0 of 6 on day 9; the survivor count (dose: 0.78 mg/kg/injection, schedule: Q04DX003 (ip), vehicle: distilled water + Tween-80) is recorded as 0 of 6 on day 9; the survivor count (dose: 1.56 mg/kg/injection, schedule: Q04DX003 (ip), vehicle: distilled water + Tween-80) is 0 of 6 on day 9; the survivor count (dose: 3.12 mg/kg/injection, schedule: Q04DX003 (ip), vehicle: distilled water + Tween-80) is recorded as 0 of 6 on day 9; the survivor count (dose: 6.25 mg/kg/injection, schedule: Q04DX003 (ip), vehicle: distilled water + Tween-80) is 0 of 6 on day 9. Moreover, the survivor count (dose: 12.5 mg/kg/injection, schedule: Q04DX003 (ip), vehicle: distilled water + Tween-80) was 0 of 6 on day 9.
Turning to `CN(C)c1ccc(/C=[N+](\[O-])C(C)(C)CO)cc1`, the survivor count (dose: 50.0 mg/kg/injection, schedule: Q01DX009 (ip), vehicle: saline with Tween-80) is 6 of 6.
Take `Cc1ccc(S(=O)CF)cc1` (configuration not stated): the survivor count under setting [1] is on record as 1 of 6 and the survivor count under setting [2] is recorded as 0 of 6.
Regarding `OCCN1CCN(CCCN2c3cc(Cl)ccc3Sc3ccsc32)CC1`, the survivor count under setting [3] is recorded as 3 of 6.
Turning to `C[N+]1(C)CCC(Cc2ccccc2)CC1`, the survivor count by setting is: (dose: 25.0 mg/kg/injection, schedule: Q01DX005 (ip), vehicle: saline) 0 of 6; (dose: 50.0 mg/kg/injection, schedule: Q01DX005 (ip), vehicle: saline) 0 of 6; (dose: 100.0 mg/kg/injection, schedule: Q01DX005 (ip), vehicle: saline) 0 of 6; (dose: 200.0 mg/kg/injection, schedule: Q01DX005 (ip), vehicle: saline) 0 of 6.
Take `Cc1cc(N/N=C/c2c(C)n(C)n(-c3ccccc3)c2=O)c2cc3c(cc2n1)OCO3`: the survivor count (dose: 50.0 mg/kg/injection, schedule: Q01DX005 (ip), vehicle: Klucel (hydroxypropylcellulose) (HPC)) is 0 of 6; the survivor count (dose: 100.0 mg/kg/injection, schedule: Q01DX005 (ip), vehicle: Klucel (hydroxypropylcellulose) (HPC)) is given as 0 of 6; the survivor count under setting [3] is 0 of 6.
As for `[N-]=[N+]=NC(=O)Nc1cccc(C(F)(F)F)c1`, the survivor count runs as follows: (dose: 120.0 mg/kg/injection, schedule: Q01DX005 (ip), vehicle: Klucel + Tween-80) 4 of 6; (dose: 240.0 mg/kg/injection, schedule: Q01DX005 (ip), vehicle: Klucel + Tween-80) 0 of 6.
For `COCC(O)Cn1ccnc1[N+](=O)[O-]` (configuration not stated), the T/C is 127 % of control (dose: 4.0 mg/kg/injection, schedule: Q01DX009 (ip), vehicle: saline + alcohol); 127 % of control (dose: 8.0 mg/kg/injection, schedule: Q01DX009 (ip), vehicle: saline + alcohol); 126 % of control (dose: 16.0 mg/kg/injection, schedule: Q01DX009 (ip), vehicle: saline + alcohol); 127 % of control (dose: 32.0 mg/kg/injection, schedule: Q01DX009 (ip), vehicle: saline + alcohol); 127 % of control [5 of 6 alive] (dose: 512.0 mg/kg/injection, schedule: Q01DX009 (ip), vehicle: saline + alcohol).
On to `COc1cc(N(CCCl)CCCl)c(OC)cc1C=Nc1ccccc1C(=O)O`, for which the survivor count was 4 of 6 (dose: 3.12 mg/kg/injection, schedule: Q01DX009 (ip), vehicle: saline); 5 of 6 (dose: 6.25 mg/kg/injection, schedule: Q01DX009 (ip), vehicle: saline); 6 of 6 (dose: 25.0 mg/kg/injection, schedule: Q01DX009 (ip), vehicle: suspension in saline). Besides, the T/C runs as follows: (dose: 6.25 mg/kg/injection, schedule: Q01DX009 (ip), vehicle: suspension in saline) 128 % of control; (dose: 12.5 mg/kg/injection, schedule: Q01DX009 (ip), vehicle: saline) 125 % of control; (dose: 12.5 mg/kg/injection, schedule: Q01DX009 (ip), vehicle: suspension in saline) 148 % of control.
Take `[N-]=[N+]=NC(=O)c1ccccn1`: the survivor count (dose: 200.0 mg/kg/injection, schedule: Q01DX009 (ip), vehicle: saline with Tween-80) is on record as 0 of 6.
On to `O=C(Cc1ccc([N+](=O)[O-])cc1)ON1C(=O)CCC1=O`, for which the survivor count (dose: 240.0 mg/kg/injection, schedule: Q01DX005 (ip), vehicle: saline with Tween-80) was 5 of 6.
On to `CC1OC(OCc2ccc(-c3ccccc3)cc2)CC(N)C1O` (configuration not stated), for which, for the setting “dose: 50.0 mg/kg/injection, schedule: Q01DX009 (ip), vehicle: water”, the survivor count is recorded as 0 of 6.

(Values after PubChem BioAssay AID330 (DTP/NCI, 2004).)
